{
  "source": "PubChem BioAssay AID445",
  "about": "(National Center for Advancing Translational Sciences (NCATS), 2006)",
  "note": "This is one part of the list. Shown are side measurements of this screen, not its main read-out; they come without a call. Most of these compounds were active or inconclusive in the main read-out, so they are no random draw. Potencies come from curve fits of mixed quality, noted in brackets.",
  "data": [
    {"experiment": "IkB Signaling", "conditions": "ABC-DLBCL IkBa-CBG/CBR dual luciferase ratio (green luciferase fused to IkBa over red control in OCI-Ly3 lymphoma cells), 4 h; measured here: control luc red channel unless noted", "procedure,_shortened": "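Curves were fitted separately to fusion (green), unfused (red) and ratio luminescence, then classed by r2, magnitude and activity. Cells: OCI-Ly3, 4 h compound plus doxycycline at 37C; 10 uM MG-132 defined full response.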", "values": [
      {"compound": "Cc1cccc(-c2nc(CS(=O)CC(=O)NCc3ccc(Cl)cc3)c(C)o2)c1", "note": "(stereo not drawn)", "AC50": "15.8 µM [falling, partial curve]"},
      {"compound": "COc1ccc(C2=C(C)C(=O)N(Cc3ccc(C(=O)Nc4ccc(F)cc4C)cc3)S2(=O)=O)cc1", "AC50": "1.58 µM [rising, full curve]"},
      {"compound": "CCN(CC)CCn1c(=N)n(CCOc2ccccc2Cl)c2ccccc21", "AC50": "31.6 µM [falling, single point]"},
      {"compound": "O=C(NCC(c1cccnc1)N1CCOCC1)C(=O)Nc1ccc(Cl)cc1", "note": "(stereo not drawn)", "AC50": "31.6 µM [falling, single point]"},
      {"compound": "O=C(NCCC1=CCCCC1)C1CCN(C(=O)N2CCOc3ccccc32)CC1", "AC50": "12.6 µM [falling, partial curve]"},
      {"compound": "Clc1ccccc1-c1nnc2sc(-c3cccs3)nn12", "AC50": "7.94 µM [falling, partial curve]"},
      {"compound": "CCOc1ccc(NC(=O)Cn2c(=O)cc(C)c3c(C)nn(C)c32)cc1", "AC50": "39.8 µM [falling, single point]"},
      {"compound": "Cc1csc2nc(-c3cccc(NS(C)(=O)=O)c3)cn12", "AC50": "25.1 µM [rising, partial curve, poor fit]"},
      {"compound": "Cc1cc(C(=O)CN2C(=O)c3ccccc3S2(=O)=O)c(C)n1-c1ccccc1", "AC50": "39.8 µM [falling, single point]"},
      {"compound": "O=C(CCCSc1nc2ccccc2s1)Nc1nccs1", "AC50": "20 µM [falling, partial curve]"},
      {"compound": "Cc1csc2nc(-c3ccc(NS(=O)(=O)c4cccc(F)c4)cc3)cn12", "AC50": "31.6 µM [falling, single point]"},
      {"compound": "Cc1c(CN(C)C(=O)c2cc(-c3ccccc3)nc3ccc(Br)cc23)cnn1C", "AC50": "10 µM [falling, partial curve]"},
      {"compound": "CCCOc1ccc(C2=NC(c3ccncc3)=Nc3ccc(C)cc3N2)cc1", "AC50": "25.1 µM [falling, single point]"},
      {"compound": "Cc1ccc(-c2n[nH]c3c2C(c2ccccc2Cl)N(c2ccc(C(=O)O)cc2)C3=O)cc1", "note": "(stereo not drawn)", "AC50": "3.98 µM [falling, full curve]"},
      {"compound": "CSc1ncc(Cl)c(C(=O)Nc2c(C(=O)Nc3cccc(C)c3)oc3ccccc23)n1", "AC50": "3.16 µM [rising, full curve]"},
      {"compound": "O=C1C2C3C=CC(C3)C2C(=O)N1CNc1ccc(O)cc1", "note": "(stereo not drawn)", "AC50": "31.6 µM [rising, single point] [measured here: IkB-luc green channel]"},
      {"compound": "O=C(CSc1nc2c(c(=O)[nH]1)CCCC2)Nc1ccccc1C(F)(F)F", "AC50": "1 µM [rising, full curve]"},
      {"compound": "CC(C)c1ccc(S(=O)(=O)c2cn(CC(=O)Nc3ccc(F)cc3)c3ccccc3c2=O)cc1", "AC50": "5.01 µM [falling, partial curve]"}
    ]}
  ]
}
